Here are results for 1 substance from PMC10835877.

Amino acid sequences for entries named in this document (tags omitted).
UniProt Q62120: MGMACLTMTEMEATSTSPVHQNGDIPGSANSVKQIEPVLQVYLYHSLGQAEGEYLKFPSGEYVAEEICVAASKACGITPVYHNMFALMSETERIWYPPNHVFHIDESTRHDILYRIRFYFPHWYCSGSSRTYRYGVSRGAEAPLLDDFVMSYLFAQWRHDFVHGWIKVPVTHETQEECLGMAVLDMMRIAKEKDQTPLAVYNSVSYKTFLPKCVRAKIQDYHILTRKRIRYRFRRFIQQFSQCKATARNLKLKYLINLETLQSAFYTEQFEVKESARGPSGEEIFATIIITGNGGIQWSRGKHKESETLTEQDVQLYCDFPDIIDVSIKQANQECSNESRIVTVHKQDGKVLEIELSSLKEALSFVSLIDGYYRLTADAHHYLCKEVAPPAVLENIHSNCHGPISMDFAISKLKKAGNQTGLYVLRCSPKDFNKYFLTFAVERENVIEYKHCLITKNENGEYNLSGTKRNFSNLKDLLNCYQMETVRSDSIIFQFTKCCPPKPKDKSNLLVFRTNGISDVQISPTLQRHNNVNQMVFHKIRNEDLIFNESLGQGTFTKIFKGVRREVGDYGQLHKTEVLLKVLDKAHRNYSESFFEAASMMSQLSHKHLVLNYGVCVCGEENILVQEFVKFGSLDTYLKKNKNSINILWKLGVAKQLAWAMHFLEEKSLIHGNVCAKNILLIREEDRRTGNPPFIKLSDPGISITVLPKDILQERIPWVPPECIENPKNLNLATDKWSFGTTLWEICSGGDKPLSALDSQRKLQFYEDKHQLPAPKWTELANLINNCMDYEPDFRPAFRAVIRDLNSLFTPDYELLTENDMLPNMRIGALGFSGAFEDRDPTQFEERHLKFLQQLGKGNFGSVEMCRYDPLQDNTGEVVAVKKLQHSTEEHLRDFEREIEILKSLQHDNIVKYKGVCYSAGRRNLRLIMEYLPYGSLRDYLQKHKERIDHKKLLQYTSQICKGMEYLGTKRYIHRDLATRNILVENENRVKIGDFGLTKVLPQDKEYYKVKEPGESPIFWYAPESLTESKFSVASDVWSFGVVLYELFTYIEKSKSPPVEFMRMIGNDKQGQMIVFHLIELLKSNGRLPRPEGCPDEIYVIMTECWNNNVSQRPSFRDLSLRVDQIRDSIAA

The target of the assay is T1, signal transducer and activator of transcription 1 (Stat1) (mouse (endogenous in primary peritoneal macrophages)) (UniProt P42225).
T1 sequence: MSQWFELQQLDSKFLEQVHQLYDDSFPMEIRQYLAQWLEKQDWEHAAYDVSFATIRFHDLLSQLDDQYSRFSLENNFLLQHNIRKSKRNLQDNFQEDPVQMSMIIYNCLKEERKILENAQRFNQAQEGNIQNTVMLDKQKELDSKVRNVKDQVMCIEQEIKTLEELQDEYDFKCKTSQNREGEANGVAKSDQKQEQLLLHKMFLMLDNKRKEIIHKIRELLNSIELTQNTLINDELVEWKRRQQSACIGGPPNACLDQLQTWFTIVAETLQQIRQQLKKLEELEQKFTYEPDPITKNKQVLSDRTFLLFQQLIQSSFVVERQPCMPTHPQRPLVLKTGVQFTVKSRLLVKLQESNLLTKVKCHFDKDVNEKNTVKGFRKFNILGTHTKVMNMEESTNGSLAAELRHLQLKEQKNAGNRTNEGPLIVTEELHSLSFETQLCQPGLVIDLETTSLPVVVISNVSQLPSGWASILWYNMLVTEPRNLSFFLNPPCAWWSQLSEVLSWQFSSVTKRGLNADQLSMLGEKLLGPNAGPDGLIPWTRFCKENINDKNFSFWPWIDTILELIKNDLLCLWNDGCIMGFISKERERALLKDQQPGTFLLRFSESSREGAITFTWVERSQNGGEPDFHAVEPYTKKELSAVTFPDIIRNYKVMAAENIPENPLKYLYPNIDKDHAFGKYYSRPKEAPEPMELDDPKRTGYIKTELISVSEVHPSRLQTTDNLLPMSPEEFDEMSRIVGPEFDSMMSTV
Put plainly: co-IP; anti-Stat1 antibody (IgG as control) on lysate of macrophages treated with Tet2 inhibitor BC339 or DMSO for 24 h and stimulated with 10 ng/mL IFN-γ for the indicated time; Tet2, Stat1, Jak1 and Jak2 detected by western blotting.

No constants are given. Whether binding was seen depends on the method and setting. In cells and extracts the contact can be indirect. Some results given as binding are weak or reduced against the parent protein; the word gives no strength.

In the case of “Janus kinase 2 (Jak2) (from UniProt Q62120 1-1132)”, the binding entry is reported as “binds”.
